Among the data in publication PMC4759862 are binding values, retold here.

These are yes or no findings as the source states them, for the method shown. In cells and extracts the contact can be indirect. Some binding calls cover weakened binding; strength is not graded here.

The target of test [1] is T1, meprin β (UniProt Q16820).
T1 sequence: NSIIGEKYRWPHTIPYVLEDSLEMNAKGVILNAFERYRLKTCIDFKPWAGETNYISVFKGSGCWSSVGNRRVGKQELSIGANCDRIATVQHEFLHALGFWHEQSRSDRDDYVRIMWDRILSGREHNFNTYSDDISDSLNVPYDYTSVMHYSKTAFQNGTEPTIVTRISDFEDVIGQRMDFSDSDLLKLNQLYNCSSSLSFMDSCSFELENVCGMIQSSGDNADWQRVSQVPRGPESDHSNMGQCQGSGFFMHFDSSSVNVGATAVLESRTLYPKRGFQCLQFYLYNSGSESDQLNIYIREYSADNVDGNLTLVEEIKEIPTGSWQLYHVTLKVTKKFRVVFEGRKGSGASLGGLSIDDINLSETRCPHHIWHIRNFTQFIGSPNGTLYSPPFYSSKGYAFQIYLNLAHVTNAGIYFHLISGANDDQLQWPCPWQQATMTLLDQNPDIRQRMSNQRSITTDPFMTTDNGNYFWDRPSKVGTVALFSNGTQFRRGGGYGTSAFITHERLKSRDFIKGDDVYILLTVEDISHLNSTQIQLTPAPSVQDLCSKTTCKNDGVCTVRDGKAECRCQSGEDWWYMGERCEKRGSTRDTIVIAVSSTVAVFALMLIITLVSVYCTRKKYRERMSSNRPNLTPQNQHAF
In words: co-IP; HEK-293T cells co-transfected with meprin β and APP695myc; NP-40 lysis buffer; 200 μg lysate with protein G sepharose and 9E10 (anti-myc) or polyclonal anti-meprin β antibody over night; Western blot. In general terms: A western blot detects proteins with antibodies after separation by electrophoresis.

For test [2], the target named is T1, meprin β. Briefly: condition: only lysates of separately transfected cells mixed post-lysis; co-IP; control: lysates of cells separately expressing APP (L1) or meprin β (L2) mixed post-lysis, then precipitated with 9E10 or anti-meprin β antibody.

For “APP695myc (myc-tagged amyloid precursor protein, APP695) (from UniProt P05067-4 18-695)”, the binding entry in test [1] was “binds”; in test [2], “no binding”.
